Assay results as given in paper PMC12847786.
These are yes or no findings as the source states them, for the method shown. Binding seen in cells or lysates may run through a third protein. Here binding means that the protein was enriched with, or labelled near, the bait; the list need not be complete.

Target: T1, Cellular communication network factor 1 (CCN1) (UniProt P18406)
T1 sequence: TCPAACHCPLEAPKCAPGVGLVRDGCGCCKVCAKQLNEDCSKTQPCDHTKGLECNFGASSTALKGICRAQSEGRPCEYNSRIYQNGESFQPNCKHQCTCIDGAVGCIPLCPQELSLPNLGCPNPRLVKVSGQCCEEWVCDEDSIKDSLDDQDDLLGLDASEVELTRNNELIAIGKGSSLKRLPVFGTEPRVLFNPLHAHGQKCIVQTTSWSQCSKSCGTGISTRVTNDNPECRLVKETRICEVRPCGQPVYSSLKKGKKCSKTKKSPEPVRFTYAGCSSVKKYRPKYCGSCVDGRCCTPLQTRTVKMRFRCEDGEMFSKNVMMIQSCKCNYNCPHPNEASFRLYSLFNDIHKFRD
Experiment: affinity purification with mass spectrometry; lysate in IP lysis buffer, anti-CCN1 antibody or control IgG overnight at 4 °C, magnetic beads, SDS-PAGE, gel bands digested with trypsin, LC-MS/MS; hits compared with IgG control and overlapped with BioGRID

- binding: binds
Substance: integrin αvβ5 (mouse (endogenous in BMDMs)) (complex)
